The source of these data is the supplement of paper PMC10060354, “Discovery of a small molecule ligand of FRS2 that inhibits invasion and tumor growth” (Cellular Oncology, 2022).

The chains behind the UniProt entries cited, without tags or fusion partners. Where a name states a change or a piece, a line headed by the entry shows the natural chain unless it says otherwise.
UniProt P52179: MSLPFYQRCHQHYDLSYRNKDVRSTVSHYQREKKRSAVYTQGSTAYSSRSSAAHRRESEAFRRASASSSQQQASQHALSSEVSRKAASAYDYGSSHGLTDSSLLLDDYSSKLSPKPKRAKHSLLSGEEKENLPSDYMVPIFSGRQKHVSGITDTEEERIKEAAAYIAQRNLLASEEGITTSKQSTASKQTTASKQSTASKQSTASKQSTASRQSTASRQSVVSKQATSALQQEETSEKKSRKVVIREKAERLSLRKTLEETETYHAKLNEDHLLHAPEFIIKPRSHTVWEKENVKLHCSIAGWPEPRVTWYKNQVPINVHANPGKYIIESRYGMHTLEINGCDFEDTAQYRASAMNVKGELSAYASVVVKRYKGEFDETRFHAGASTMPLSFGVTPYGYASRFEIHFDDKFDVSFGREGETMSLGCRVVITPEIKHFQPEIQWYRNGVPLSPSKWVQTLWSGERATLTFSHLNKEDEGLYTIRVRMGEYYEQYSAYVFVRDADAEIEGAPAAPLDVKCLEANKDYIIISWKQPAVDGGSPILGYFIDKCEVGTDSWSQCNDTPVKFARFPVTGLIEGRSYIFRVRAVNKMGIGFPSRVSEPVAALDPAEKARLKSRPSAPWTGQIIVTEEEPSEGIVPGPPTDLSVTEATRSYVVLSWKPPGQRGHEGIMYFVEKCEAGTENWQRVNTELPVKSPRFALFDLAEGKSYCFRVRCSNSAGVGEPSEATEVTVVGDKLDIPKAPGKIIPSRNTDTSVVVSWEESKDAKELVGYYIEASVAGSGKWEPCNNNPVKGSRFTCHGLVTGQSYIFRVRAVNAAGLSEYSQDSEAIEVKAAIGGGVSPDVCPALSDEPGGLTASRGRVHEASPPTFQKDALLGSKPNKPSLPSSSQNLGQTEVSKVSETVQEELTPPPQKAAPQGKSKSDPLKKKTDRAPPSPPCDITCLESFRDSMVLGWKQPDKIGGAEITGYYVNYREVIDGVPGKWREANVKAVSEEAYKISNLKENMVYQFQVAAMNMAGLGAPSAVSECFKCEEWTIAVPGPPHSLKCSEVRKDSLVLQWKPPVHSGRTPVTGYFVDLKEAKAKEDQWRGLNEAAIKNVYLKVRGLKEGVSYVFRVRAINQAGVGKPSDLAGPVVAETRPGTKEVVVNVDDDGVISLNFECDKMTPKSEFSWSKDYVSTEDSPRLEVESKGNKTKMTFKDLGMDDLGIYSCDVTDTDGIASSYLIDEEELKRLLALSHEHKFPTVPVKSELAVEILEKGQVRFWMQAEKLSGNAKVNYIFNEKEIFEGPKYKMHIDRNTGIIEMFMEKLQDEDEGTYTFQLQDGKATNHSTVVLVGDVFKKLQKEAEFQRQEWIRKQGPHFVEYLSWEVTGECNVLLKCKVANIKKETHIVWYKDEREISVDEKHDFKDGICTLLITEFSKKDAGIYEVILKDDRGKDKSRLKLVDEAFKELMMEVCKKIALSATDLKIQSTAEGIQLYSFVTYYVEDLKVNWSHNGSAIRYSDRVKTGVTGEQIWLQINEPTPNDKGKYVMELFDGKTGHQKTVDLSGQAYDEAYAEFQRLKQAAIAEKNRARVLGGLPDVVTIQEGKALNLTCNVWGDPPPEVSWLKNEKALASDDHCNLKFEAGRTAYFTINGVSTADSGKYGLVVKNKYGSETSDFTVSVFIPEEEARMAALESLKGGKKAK
UniProt Q4V328: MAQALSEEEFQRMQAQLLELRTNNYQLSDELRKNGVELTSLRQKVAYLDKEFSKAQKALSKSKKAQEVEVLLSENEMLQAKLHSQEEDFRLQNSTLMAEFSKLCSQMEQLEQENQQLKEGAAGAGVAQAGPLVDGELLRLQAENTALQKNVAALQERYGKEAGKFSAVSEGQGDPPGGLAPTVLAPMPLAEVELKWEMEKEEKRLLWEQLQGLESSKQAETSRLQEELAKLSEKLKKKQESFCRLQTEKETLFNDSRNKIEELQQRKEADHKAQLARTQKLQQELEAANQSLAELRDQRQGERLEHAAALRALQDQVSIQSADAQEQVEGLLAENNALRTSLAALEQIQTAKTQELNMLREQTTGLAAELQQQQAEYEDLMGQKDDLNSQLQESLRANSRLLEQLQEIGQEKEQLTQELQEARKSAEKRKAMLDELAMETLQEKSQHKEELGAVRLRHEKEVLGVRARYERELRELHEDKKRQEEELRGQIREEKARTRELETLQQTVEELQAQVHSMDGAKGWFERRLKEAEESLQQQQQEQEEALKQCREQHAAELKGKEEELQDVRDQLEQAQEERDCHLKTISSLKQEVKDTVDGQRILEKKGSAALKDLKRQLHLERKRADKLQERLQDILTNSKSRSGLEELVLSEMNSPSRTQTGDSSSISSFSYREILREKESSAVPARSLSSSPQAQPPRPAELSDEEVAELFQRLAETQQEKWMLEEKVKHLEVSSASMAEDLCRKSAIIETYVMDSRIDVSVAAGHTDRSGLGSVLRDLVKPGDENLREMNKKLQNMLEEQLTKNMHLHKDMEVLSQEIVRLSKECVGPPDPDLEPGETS
UniProt Q9Y6Y8: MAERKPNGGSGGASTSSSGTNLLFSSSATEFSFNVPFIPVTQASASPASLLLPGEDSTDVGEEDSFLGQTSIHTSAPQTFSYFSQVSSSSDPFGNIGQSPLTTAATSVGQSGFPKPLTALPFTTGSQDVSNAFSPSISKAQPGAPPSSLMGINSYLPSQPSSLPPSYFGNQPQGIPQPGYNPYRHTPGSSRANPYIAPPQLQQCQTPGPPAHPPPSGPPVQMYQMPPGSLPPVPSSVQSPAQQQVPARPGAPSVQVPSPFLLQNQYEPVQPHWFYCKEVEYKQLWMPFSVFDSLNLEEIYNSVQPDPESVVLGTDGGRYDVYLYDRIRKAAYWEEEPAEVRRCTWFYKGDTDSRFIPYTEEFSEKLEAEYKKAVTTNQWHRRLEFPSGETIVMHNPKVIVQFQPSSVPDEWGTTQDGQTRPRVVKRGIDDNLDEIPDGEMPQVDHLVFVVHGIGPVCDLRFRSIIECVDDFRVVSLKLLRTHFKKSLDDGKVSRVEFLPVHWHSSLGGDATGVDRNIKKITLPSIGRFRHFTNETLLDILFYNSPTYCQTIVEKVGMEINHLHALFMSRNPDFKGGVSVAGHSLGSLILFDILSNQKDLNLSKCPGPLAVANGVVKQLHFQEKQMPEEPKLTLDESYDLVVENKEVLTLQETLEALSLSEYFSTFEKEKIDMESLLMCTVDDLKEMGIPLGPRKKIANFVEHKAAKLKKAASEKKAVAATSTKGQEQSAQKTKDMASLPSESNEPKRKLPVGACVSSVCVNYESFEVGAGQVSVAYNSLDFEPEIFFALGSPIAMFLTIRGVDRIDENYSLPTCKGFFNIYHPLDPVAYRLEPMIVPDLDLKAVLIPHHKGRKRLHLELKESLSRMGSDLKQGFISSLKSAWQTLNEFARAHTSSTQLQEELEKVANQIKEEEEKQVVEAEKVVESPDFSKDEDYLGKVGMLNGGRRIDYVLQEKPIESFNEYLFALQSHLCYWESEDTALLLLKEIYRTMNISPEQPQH
UniProt Q5VWI1: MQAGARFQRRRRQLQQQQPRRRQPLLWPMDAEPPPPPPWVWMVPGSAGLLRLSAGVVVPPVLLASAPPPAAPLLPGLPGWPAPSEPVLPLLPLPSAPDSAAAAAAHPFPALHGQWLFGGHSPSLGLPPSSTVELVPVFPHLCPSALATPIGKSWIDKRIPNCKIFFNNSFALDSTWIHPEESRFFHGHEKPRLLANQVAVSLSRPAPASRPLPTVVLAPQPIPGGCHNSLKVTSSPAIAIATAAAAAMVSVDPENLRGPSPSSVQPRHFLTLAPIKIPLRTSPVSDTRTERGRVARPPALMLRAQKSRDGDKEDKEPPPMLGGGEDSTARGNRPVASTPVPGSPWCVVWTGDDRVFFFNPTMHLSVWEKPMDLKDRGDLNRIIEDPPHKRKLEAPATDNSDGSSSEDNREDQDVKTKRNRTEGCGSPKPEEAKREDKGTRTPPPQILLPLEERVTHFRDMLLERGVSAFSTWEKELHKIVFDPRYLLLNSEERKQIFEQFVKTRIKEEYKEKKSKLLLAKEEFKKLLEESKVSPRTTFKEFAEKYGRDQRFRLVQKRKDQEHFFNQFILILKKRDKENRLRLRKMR
UniProt Q13439: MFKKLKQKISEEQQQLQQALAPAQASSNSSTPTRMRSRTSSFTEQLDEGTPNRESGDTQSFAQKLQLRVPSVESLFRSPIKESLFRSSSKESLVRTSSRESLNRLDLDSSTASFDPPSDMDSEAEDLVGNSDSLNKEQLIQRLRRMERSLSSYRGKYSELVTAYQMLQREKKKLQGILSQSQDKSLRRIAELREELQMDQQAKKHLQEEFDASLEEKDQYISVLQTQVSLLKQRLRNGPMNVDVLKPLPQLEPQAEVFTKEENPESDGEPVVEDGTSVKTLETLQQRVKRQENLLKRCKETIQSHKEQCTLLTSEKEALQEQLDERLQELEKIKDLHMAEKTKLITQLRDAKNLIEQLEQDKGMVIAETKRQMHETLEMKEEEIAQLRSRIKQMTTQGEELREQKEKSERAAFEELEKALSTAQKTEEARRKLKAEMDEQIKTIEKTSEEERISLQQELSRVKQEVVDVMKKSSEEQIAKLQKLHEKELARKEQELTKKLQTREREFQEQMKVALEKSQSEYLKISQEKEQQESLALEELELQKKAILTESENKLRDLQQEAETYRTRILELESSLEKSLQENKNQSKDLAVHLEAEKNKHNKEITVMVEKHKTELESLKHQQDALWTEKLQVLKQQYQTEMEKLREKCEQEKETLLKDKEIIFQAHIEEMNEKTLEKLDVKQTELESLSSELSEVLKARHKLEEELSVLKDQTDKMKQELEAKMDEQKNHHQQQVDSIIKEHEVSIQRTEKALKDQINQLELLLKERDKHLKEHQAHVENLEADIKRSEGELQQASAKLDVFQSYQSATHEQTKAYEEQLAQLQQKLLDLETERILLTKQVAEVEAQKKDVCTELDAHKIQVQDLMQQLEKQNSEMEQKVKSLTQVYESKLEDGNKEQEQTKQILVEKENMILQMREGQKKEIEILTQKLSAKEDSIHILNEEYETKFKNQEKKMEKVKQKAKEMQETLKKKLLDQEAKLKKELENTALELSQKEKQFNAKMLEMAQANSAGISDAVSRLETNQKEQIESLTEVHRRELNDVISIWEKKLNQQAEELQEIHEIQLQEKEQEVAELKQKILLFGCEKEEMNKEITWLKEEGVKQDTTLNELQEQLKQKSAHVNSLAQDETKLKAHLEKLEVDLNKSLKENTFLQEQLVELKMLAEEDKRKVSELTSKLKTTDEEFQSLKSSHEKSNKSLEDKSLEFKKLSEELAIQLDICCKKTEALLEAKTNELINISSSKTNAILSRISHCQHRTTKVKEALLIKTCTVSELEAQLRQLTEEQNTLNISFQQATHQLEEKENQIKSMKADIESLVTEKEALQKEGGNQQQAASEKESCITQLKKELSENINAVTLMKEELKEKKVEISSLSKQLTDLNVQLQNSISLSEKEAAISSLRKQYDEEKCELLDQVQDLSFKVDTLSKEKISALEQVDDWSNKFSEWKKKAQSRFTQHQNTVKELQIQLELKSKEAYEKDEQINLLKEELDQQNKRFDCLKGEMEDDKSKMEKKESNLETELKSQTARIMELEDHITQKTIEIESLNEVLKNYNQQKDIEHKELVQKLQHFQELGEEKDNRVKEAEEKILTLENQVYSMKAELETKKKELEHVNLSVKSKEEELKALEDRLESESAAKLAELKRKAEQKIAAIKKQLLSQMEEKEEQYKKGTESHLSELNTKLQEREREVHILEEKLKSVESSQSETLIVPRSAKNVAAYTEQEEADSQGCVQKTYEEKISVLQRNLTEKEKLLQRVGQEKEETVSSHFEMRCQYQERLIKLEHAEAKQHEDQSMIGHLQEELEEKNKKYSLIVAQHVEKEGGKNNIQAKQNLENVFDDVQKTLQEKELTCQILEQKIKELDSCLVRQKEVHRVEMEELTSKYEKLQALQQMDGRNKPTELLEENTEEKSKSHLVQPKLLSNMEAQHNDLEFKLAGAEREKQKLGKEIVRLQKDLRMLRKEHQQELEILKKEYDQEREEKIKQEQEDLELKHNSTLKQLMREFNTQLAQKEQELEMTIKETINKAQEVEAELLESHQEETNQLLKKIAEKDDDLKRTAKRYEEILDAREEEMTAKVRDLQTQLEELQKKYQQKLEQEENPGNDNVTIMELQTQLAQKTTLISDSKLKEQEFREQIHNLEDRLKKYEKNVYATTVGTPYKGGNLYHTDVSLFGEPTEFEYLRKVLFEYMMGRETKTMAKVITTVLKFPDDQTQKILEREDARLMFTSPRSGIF
UniProt Q5TGJ6: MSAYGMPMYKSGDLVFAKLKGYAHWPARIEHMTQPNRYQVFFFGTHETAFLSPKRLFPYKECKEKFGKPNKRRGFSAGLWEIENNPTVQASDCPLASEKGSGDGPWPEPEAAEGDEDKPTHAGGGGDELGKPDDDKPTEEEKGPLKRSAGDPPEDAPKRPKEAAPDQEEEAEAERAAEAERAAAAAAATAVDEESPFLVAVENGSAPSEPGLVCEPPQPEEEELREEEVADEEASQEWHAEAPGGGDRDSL

Single values are uncertain, as repeats are few or missing.

Compound in the test: [O-][N+](C(C1=C(C(O)=C2)NC(C(C=C3)=CC=C3Cl)C4C1C=CC4)=C2Cl)=O
Put plainly: melting temperature shift (compound 7 minus DMSO); higher = compound stabilises the protein. To be noted: 10 µM. As for the experimental part:
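Thermal proteome profiling (TMT mass spectrometry) in intact DAOY medulloblastoma cells or DAOY lysates treated with 10 µM compound 7 or DMSO, heated at 10 temperatures from 40.5 to 73.8 °C for 3 min. Melting curves were fitted with the Bioconductor TPP package, and the melting point difference between compound and vehicle is reported per protein (single curve per condition).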

[1] abbreviates: system: intact DAOY cells, treatment time: 90 min, 37 °C.
The mark [2] stands for this setting: system: DAOY cell lysate, treatment time: 20 min, 4 °C.

For UniProt Q96J87, the melting temperature shift under setting [1] is 0.0268 °C.

In the case of WARS (UniProt P23381), the melting temperature shift under setting [2] was -1.24 °C and the melting temperature shift under setting [1] is -0.0564 °C.

On to UniProt Q8NDT2, for which the melting temperature shift under setting [2] came out at 0.508 °C.

As for UniProt Q9UNP4, the melting temperature shift stood at 1.34 °C under setting [2] and 1.72 °C under setting [1].

As to UniProt Q8NBM8, the melting temperature shift reads like this: under setting [2], 1.06 °C; under setting [1], 1.18 °C.

As for UniProt Q4L180, the melting temperature shift stood at 2.02 °C under setting [2] and 0.986 °C under setting [1].

In the case of MB21D2 (UniProt Q8IYB1), the melting temperature shift is 1.3 °C under setting [2] and 1.21 °C under setting [1].

Regarding UniProt Q5VUB5, the melting temperature shift under setting [2] was -0.166 °C.

On to UniProt Q01543, for which the melting temperature shift under setting [1] worked out at 2.1 °C.

In the case of EAPP (UniProt Q56P03), the melting temperature shift under setting [2] was -0.172 °C and the melting temperature shift under setting [1] was -0.793 °C.

In the case of UniProt Q9HB20, the melting temperature shift under setting [2] is -2.28 °C.

Consider C19ORF53 (UniProt Q9UNZ5), for which the melting temperature shift was 1.08 °C under setting [2] and -0.444 °C under setting [1].

MYO5A (UniProt Q9Y4I1): the melting temperature shift under setting [2] is -0.0698 °C and the melting temperature shift under setting [1] was -0.44 °C.

Regarding UniProt Q9BWL3, the melting temperature shift under setting [1] was -1.3 °C.

Regarding UniProt P52179, the melting temperature shift under setting [1] was 1.47 °C.

Turning to NELFB (UniProt Q8WX92), the melting temperature shift by setting is: under setting [2], -0.0813 °C; under setting [1], -0.896 °C.

Turning to CRLF3 (UniProt Q8IUI8), the melting temperature shift under setting [2] is -0.019 °C and the melting temperature shift under setting [1] turned out to be 0.471 °C.

As to UniProt Q8NA31, the melting temperature shift under setting [2] was -2.64 °C.

On to UHRF1 (UniProt Q96T88), for which the melting temperature shift by setting is: under setting [2], -0.244 °C; under setting [1], -0.0226 °C.

With UniProt P48230, the melting temperature shift under setting [1] was -0.529 °C.

Regarding CCT5 (UniProt P48643), the melting temperature shift is, setting by setting: under setting [2], -0.269 °C; under setting [1], -0.39 °C.

KSR1 (UniProt Q8IVT5): the melting temperature shift was -1.63 °C under setting [2] and -2.54 °C under setting [1].

For NAA38 (UniProt Q9BRA0), the melting temperature shift runs as follows: under setting [2], -1.41 °C; under setting [1], -3.07 °C.

Take UniProt Q8NEV1: under setting [1], the melting temperature shift is -0.415 °C.

With TRAPPC13 (UniProt A5PLN9), the melting temperature shift was 0.627 °C under setting [2] and 0.131 °C under setting [1].

As to EIF4H (UniProt Q15056), the melting temperature shift by setting is: under setting [2], 0.029 °C; under setting [1], -0.132 °C.

Regarding UniProt P36959, under setting [1], the melting temperature shift amounted to 0.547 °C.

On to UniProt Q8IUH3, for which the melting temperature shift under setting [2] came out at 0.998 °C.

SKIV2L (UniProt Q15477): the melting temperature shift under setting [2] was -0.0582 °C.

As for ILVBL (UniProt A1L0T0), the melting temperature shift is -0.68 °C under setting [2] and 0.803 °C under setting [1].

Turning to RRP1B (UniProt Q14684), under setting [2], the melting temperature shift is 0.658 °C.

On to PDHA1 (UniProt P08559), for which the melting temperature shift was 0.18 °C under setting [2] and -0.833 °C under setting [1].

On to EXD2 (UniProt Q9NVH0), for which the melting temperature shift is 2.7 °C under setting [2] and -0.191 °C under setting [1].

Regarding UniProt P02452, the melting temperature shift is, setting by setting: under setting [2], 1.33 °C; under setting [1], 0.0277 °C.

Take APOL2 (UniProt Q9BQE5): the melting temperature shift reads like this: under setting [2], 1.96 °C; under setting [1], -1.35 °C.

Turning to GRIPAP1 (UniProt Q4V328), the melting temperature shift by setting is: under setting [2], -0.855 °C; under setting [1], 0.318 °C.

As to RAB11FIP1 (UniProt Q6WKZ4), the melting temperature shift under setting [2] is -0.518 °C.

Take PRTFDC1 (UniProt Q9NRG1): the melting temperature shift under setting [2] came out at 1.39 °C.

As to GGPS1 (UniProt O95749), the melting temperature shift by setting is: under setting [2], -0.762 °C; under setting [1], 1.55 °C.

Consider CLDND1 (UniProt Q9NY35), for which the melting temperature shift under setting [2] was -3.06 °C.

Regarding SNX9 (UniProt Q9Y5X1), the melting temperature shift by setting is: under setting [2], -0.312 °C; under setting [1], -0.771 °C.

Regarding HBS1L (UniProt Q9Y450), the melting temperature shift under setting [2] is -0.101 °C and the melting temperature shift under setting [1] is -0.377 °C.

With FAM160B1 (UniProt Q5W0V3), the melting temperature shift under setting [2] is -1.48 °C and the melting temperature shift under setting [1] turned out to be 0.812 °C.

For TRAPPC12 (UniProt Q8WVT3), the melting temperature shift under setting [2] is -2.37 °C and the melting temperature shift under setting [1] is -0.617 °C.

As for SEC23IP (UniProt Q9Y6Y8), the melting temperature shift is, setting by setting: under setting [2], 0.441 °C; under setting [1], 0.0166 °C.

For PPP6R3 (UniProt Q5H9R7), the melting temperature shift runs as follows: under setting [2], -1.1 °C; under setting [1], 0.978 °C.

In the case of CSPG4 (UniProt Q6UVK1), the melting temperature shift was -0.94 °C under setting [2] and 3.47 °C under setting [1].

For PIR (UniProt O00625), the melting temperature shift runs as follows: under setting [2], -0.393 °C; under setting [1], 0.748 °C.

Regarding Q95604 (UniProt P10321), the melting temperature shift under setting [2] is 1.45 °C and the melting temperature shift under setting [1] came to 0.492 °C.

Regarding UniProt Q9BRK4, the melting temperature shift under setting [1] stood at 0.0845 °C.

UniProt Q969P6: the melting temperature shift under setting [1] was 0.296 °C.

As for RPS5 (UniProt P46782), the melting temperature shift is 0.336 °C under setting [2] and -1.15 °C under setting [1].

In the case of EGFR (UniProt P00533), the melting temperature shift by setting is: under setting [2], 1.87 °C; under setting [1], -1.3 °C.

As for UniProt Q5VWI1, under setting [1], the melting temperature shift was -0.17 °C.

For UniProt Q9H903, the melting temperature shift under setting [1] is -1.73 °C.

FUCA2 (UniProt Q9BTY2): the melting temperature shift was 0.12 °C under setting [2] and -0.0275 °C under setting [1].

RPS12 (UniProt P25398): the melting temperature shift runs as follows: under setting [2], 0.276 °C; under setting [1], -1.19 °C.

As to BTBD10 (UniProt Q9BSF8), under setting [2], the melting temperature shift is -0.313 °C.

For NFIB (UniProt O00712), the melting temperature shift under setting [2] came to 1.36 °C.

Consider UniProt Q9Y3M8, for which, under setting [2], the melting temperature shift turned out to be 1.69 °C.

Take NCL (UniProt P19338): the melting temperature shift was 0.0687 °C under setting [2] and -0.169 °C under setting [1].

As for BLOC1S5 (UniProt Q8TDH9), under setting [1], the melting temperature shift stood at 2.87 °C.

Take RPP30 (UniProt P78346): the melting temperature shift was -1.26 °C under setting [2] and -0.562 °C under setting [1].

As to BOD1L1 (UniProt Q8NFC6), the melting temperature shift under setting [2] is -2.71 °C.

With GOLGA4 (UniProt Q13439), the melting temperature shift was -0.229 °C under setting [2] and -0.00738 °C under setting [1].

With SLC25A13 (UniProt Q9UJS0), the melting temperature shift is 1.39 °C under setting [2] and -0.726 °C under setting [1].

SLC39A11 (UniProt Q8N1S5): the melting temperature shift under setting [1] is -1.35 °C.

Regarding UniProt Q9NZN3, the melting temperature shift under setting [2] is -0.62 °C and the melting temperature shift under setting [1] was -0.583 °C.

As to UniProt Q16799, under setting [2], the melting temperature shift came out at 2.37 °C.

UniProt Q9NX76: the melting temperature shift is, setting by setting: under setting [2], 3.57 °C; under setting [1], -1.11 °C.

For HMGB1 (UniProt P09429), the melting temperature shift under setting [2] was found to be 0.271 °C.

With ME1 (UniProt P48163), the melting temperature shift is, setting by setting: under setting [2], -0.606 °C; under setting [1], -0.153 °C.

Regarding CRK (UniProt P46108), the melting temperature shift was -0.678 °C under setting [2] and 0.00319 °C under setting [1].

As to TRIP6 (UniProt Q15654), the melting temperature shift amounted to 1.46 °C under setting [2] and 0.447 °C under setting [1].

Consider STIM1 (UniProt Q13586), for which the melting temperature shift is 2.43 °C under setting [2] and 0.706 °C under setting [1].

With HOOK1 (UniProt Q9UJC3), the melting temperature shift under setting [2] was -0.173 °C.

With UniProt Q8WXX0, under setting [2], the melting temperature shift came to 0.333 °C.

In the case of RPE (UniProt Q96AT9), under setting [2], the melting temperature shift was found to be 1.25 °C.

In the case of SLC38A1 (UniProt Q9H2H9), the melting temperature shift under setting [2] is -0.794 °C and the melting temperature shift under setting [1] was -2.22 °C.

On to ERMP1 (UniProt Q7Z2K6), for which, under setting [2], the melting temperature shift was 2.35 °C.

In the case of AGK (UniProt Q53H12), the melting temperature shift reads like this: under setting [2], 1.45 °C; under setting [1], 0.533 °C.

Consider WDR48 (UniProt Q8TAF3), for which the melting temperature shift reads like this: under setting [2], -0.62 °C; under setting [1], -0.327 °C.

ARMC6 (UniProt Q6NXE6): the melting temperature shift under setting [2] is -1.05 °C and the melting temperature shift under setting [1] worked out at 0.402 °C.

For the target VKORC1L1 (UniProt Q8N0U8), the melting temperature shift under setting [2] was found to be 5.46 °C.

On to UniProt Q6PH85, for which the melting temperature shift under setting [1] is -0.45 °C.

Regarding DNMT1 (UniProt P26358), the melting temperature shift was 0.161 °C under setting [2] and 0.0293 °C under setting [1].

As to UniProt Q5TGJ6, the melting temperature shift under setting [2] is -1.26 °C.

Consider TRAPPC5 (UniProt Q8IUR0), for which the melting temperature shift under setting [2] is -1.28 °C and the melting temperature shift under setting [1] came out at 0.739 °C.

As for RNF14 (UniProt Q9UBS8), the melting temperature shift under setting [2] is -0.505 °C and the melting temperature shift under setting [1] is -0.0503 °C.

In the case of FXR1 (UniProt P51114), the melting temperature shift is 0.874 °C under setting [2] and -0.316 °C under setting [1].

For AP1M1 (UniProt Q9BXS5), the melting temperature shift reads like this: under setting [2], -0.744 °C; under setting [1], 0.78 °C.

Regarding LAMP2 (UniProt P13473), the melting temperature shift under setting [2] is -2.3 °C.

For the target UTP18 (UniProt Q9Y5J1), under setting [2], the melting temperature shift turned out to be 0.798 °C.

Turning to IGF2BP3 (UniProt O00425), the melting temperature shift is, setting by setting: under setting [2], -0.11 °C; under setting [1], -0.0499 °C.
